This passage reports binding results from patent US20250034250A1.

No constants are given. Whether binding was seen depends on the method and setting.

For the test, the target named is artificial CD33 molecule that contains only the V-set domain (CD33^ΔE3-4). Put plainly: binding to cells displaying CD33^ΔE3-4.

B1: anti-CD33 antibody 1H7 (antibody, V domains shown)
VH: QVQLQQSGAELVKPGASVKISCKASGYAFSNYWMNWVKQRPGKGLEWIGQINPGDGDTNYNGKFKGKATLTADKSSSTAYMQLSSLTSEDSAVYFCAREDRDYFDYWGQGTTLTVSS
VL: DIQMTQTTSSLSASLGDRVTISCRASQDINYYLNWYQQKPDGTVKLLIYYSSRLHSGVPSRFSGSGSGTDFSLTISNLEQEDIATYFCQQDDALPYTFGGGTKLEIKR
For B1, the binding entry was “no binding”.
